Results from PubChem BioAssay (NCATS).
Values joined by “and” are separate entries in the source; they are usually repeats but may differ in a detail not shown here. Equal values may be shown once. The list shows a part of the results. Shown are side measurements of this screen, not its main read-out; they come without a call. Compounds called inactive in the main read-out are mostly missing here. The note in brackets gives the kind of curve behind each potency; many fits are weak.

By UniProt entry, the sequences of proteins in these tests, tags left out. Where a name states a change or a piece, a line headed by the entry shows the natural chain unless it says otherwise.
UniProt P40261: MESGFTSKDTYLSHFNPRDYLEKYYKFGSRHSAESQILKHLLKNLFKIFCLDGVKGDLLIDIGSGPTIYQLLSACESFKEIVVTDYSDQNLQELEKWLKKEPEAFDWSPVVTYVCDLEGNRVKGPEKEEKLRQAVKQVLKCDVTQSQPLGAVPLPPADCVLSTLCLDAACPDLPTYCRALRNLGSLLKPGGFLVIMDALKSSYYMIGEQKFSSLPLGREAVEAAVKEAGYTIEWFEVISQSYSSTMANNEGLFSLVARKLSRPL
UniProt P50135: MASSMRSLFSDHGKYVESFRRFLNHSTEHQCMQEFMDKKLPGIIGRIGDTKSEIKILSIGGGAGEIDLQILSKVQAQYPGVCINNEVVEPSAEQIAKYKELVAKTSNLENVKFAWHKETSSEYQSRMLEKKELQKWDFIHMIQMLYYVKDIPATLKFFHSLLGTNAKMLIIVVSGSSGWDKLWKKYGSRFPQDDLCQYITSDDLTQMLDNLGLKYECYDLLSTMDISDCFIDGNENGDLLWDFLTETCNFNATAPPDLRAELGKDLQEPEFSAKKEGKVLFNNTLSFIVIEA

Legend:
[1] = qHTS Assay for Inhibitors of PDE-IV (AID 607); details: HEK293 ACTOne CNG channel cells, membrane potential fluorescence; measured here: parental cell counter-screen
Summary of the method: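 HEK293 ACTOne cells with CNG channel (1000/well), endogenous PDE4; membrane potential dye, compounds up to 22.9 uM final. Fluorescence Ex 535/Em 590; RO 20-1724 (100 uM final) as reference.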

[2] = Validation of Assay for Modulators of Lamin A Splicing (AID 1459); details: Lamin A splicing dual RFP/GFP fluorescence reporter, ratio
Summary of the method: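 Splicing correction read as GFP (500-530 nm) over DsRed2 (575-640 nm) object intensity after 48 h compound exposure of reporter HeLa S3 clones (600 cells/well, 2% FBS medium); ancitabine and cycloheximide titrations, 0.5% DMSO as vehicle.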

[3] = qHTS Assay for Lipid Storage Modulators (AID 1519); details: Drosophila S3 cells, BODIPY lipid droplet/cell ratio, laser cytometry, cells loaded with oleic acid
Summary of the method: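 Cells seeded at 5,000 per well were treated with compounds over a concentration series and loaded with oleic acid (400 uM, as added). Lipid droplet fluorescence (488 nm excitation, 500-530 nm channel) was read by laser-scanning cytometry and normalized to 20 uM Triacsin C.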

[4] = qHTS Assay for Modulators of Human Peripheral Myelin Protein 22 (PMP22) Expression/Activity (AID 1967); details: Cell-based PMP22 reporter, dual-color luciferase ratio
Summary of the method: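 Readout is the corrected green/red luminescence ratio after 24 h compound exposure, normalised to untreated cells (0%). Engineered MSC80 mouse Schwann cells express green luciferase from the mouse Pmp22 promoter and red luciferase from EF-alpha as internal control.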

[5] = qHTS for identification of novel therapeutic agents for treatment of microphthalmiaassociated transcription factor (MiT) renal cell carcinoma (RCC) (AID 1963991); details: CellTiter-Glo, 48 h; for z-score: stronger effect = lower value
Summary of the method: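 Three TFE3-fusion RCC lines (UOK109, UOK124, UOK145), 500 cells/well in complete medium, were treated with MIPE 4.0 compounds for 48 hours at 37 C. Viability was by CellTiter-Glo luminescence, normalized to DMSO (100%) and empty wells (0%); curves fitted over 11 concentrations.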

[6] = target: Nicotinamide N-methyltransferase (Homo sapiens) (UniProt P40261); assay: Confirmatory Screen for Target Class Profiling of Small Molecule Inhibitors of Methyltransferases (AID 1745852); details: MTase-Glo luminescence, SAH detection, recombinant enzyme; measured here: NNMT inhibition potency
[7] = qHTS Validation Assay to Find Inhibitors of Chronic Active B-Cell Receptor Signaling (AID 485345); details: ABC-DLBCL cells, chronic BCR signaling reporter
Summary of the method: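 TMD8 ABC-DLBCL cells with dox-inducible green luciferase–IκBα fusion and red native luciferase; compounds 46 uM–3 nM, 4 h at 37C with doxycycline in 0.5% FBS IMDM. Green/red ratio normalized to basal and 10 uM MG-132.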

[8] = target: Histamine N-methyltransferase (Homo sapiens) (UniProt P50135); assay: Confirmatory Screen for Target Class Profiling of Small Molecule Inhibitors of Methyltransferases (AID 1745852); details: MTase-Glo luminescence, SAH detection, recombinant enzyme; measured here: HNMT inhibition potency
[9] = measured here: cell count channel max response
[10] = measured here: cell number channel AC50
[11] = measured here: lipid (BODIPY) channel AC50
[12] = measured here: lipid channel max response
[13] = measured here: green reporter channel AC50, mouse Pmp22 promoter in mouse Schwann cells
[14] = measured here: red reporter channel AC50, EF-alpha promoter control reporter in MSC80 mouse Schwann cells
[15] = TFE3-RCC UOK109 viability, measured here: UOK109 Z-AUC
[16] = TFE3-RCC viability, measured here: UOK124 Z-AUC
[17] = TFE3-RCC viability, measured here: UOK145 Z-AUC
[18] = measured here: CBR control luciferase (viability counter)

Row | SMILES | AC50 [1] | AC50 ([2]; measured here: GFP channel) | AC50 ([2]; measured here: RFP channel) | max response [3, 9] | AC50 [3, 10] | AC50 [3, 11] | max response [3, 12] | AC50 [4, 13] | AC50 [4, 14] | z-score [5, 15] | z-score [5, 16] | z-score [5, 17] | IC50 [6] | AC50 ([7]; measured here: CBG/CBR ratio read-out) | AC50 [7, 18] | AC50 ([5]; TFE3-RCC viability, measured here: UOK124 cell viability) | AC50 ([5]; TFE3-RCC viability, measured here: UOK145 cell viability) | IC50 [8]
1 | Cc1nc(-c2ccc(-c3ccc(C(=O)N4CCc5cc6c(cc54)C4(CCN(C)CC4)CO6)cc3)c(C)c2)no1 | 12.6 µM [rising, partial curve] and 15.8 µM [rising, partial curve] | 11.2 µM [falling, partial curve] | 12.6 µM [falling, partial curve] | 63.6% and 44.2% | 15.8 µM [rising, partial curve, poor fit] | 17.8 µM [rising, partial curve, poor fit] | 75.9% and 45.4% | 16.9 µM [falling, full curve] | 16.9 µM [falling, full curve] | 0.6 | 0.627 | 0.641 | – | – | – | – | – | –
2 | C[C@]12Cc3cn4c(nc3C=C1CCC1C2CC[C@@]2(C)[C@H]1CC[C@@]2(O)C#N)nc1ccccc14 (stereo partly drawn) | – | 5.62 µM [falling, full curve] | 5.62 µM [falling, full curve] | -66.2% | 10 µM [falling, partial curve, poor fit] | 10 µM [falling, partial curve, poor fit] | -63% | 84.9 µM [falling, single point] | 23.9 µM [falling, partial curve] | – | – | – | 21.7 µM [falling, partial curve] | – | – | – | – | –
3 | COc1cc(-c2ccc(=O)[nH]n2)ccc1OC(F)F | – | 7.08 µM [falling, partial curve] | 2 µM [falling, full curve] | 91.8% and 16.6% | 15.8 µM [rising, partial curve, poor fit] | 15.8 µM [rising, partial curve, poor fit] and 2.51 nM [falling, full curve, poor fit] | 119% and 13.9% | – | 75.7 µM [falling, partial curve] | – | – | – | – | – | – | – | – | –
4 | Cc1c(C(=O)c2cccc3ccccc23)c2cccc3c2n1[C@H](CN1CCOCC1)CO3 | – | 22.4 µM [falling, single point] | 22.4 µM [falling, single point] | 53.6% | – | – | 57% | 26.9 µM [falling, full curve] | 19 µM [falling, full curve] | -0.0766 | -0.0302 | -0.273 | – | 20.6 µM [falling, single point] | 25.9 µM [falling, single point] | 20.9 µM [falling, partial curve] | 26.4 µM [falling, single point] | –
5 | NC(=O)CI | – | 6.31 µM [falling, full curve] | 5.62 µM [falling, full curve] | -22.1% | 15.8 µM [falling, single point] | 15.8 µM [falling, single point] | -22.5% | – | 84.9 µM [falling, single point] | – | – | – | – | – | – | – | – | 21.7 µM [falling, partial curve, poor fit]
6 | NC1CC1c1ccccc1 (stereo not drawn) | – | 35.5 µM [falling, single point] | 35.5 µM [falling, single point] | 60.2% | – | – | 57.9% | – | 21.3 µM [rising, partial curve] | – | – | – | – | – | – | – | – | –
7 | CN[C@@H]1C[C@@H](c2ccc(Cl)c(Cl)c2)c2ccccc21 | – | 15.8 µM [falling, partial curve] | 17.8 µM [falling, partial curve] | -37.9% | 17.8 µM [falling, partial curve, poor fit] | 17.8 µM [falling, partial curve, poor fit] | -37.4% | 30.1 µM [falling, full curve] | 23.9 µM [falling, full curve] | – | – | – | – | – | 20.6 µM [falling, partial curve] | – | – | –

Rewritten with tabs: two of the compounds above
Row	SMILES	AC50 [1]	AC50 ([2]; measured here: GFP channel)	AC50 ([2]; measured here: RFP channel)	max response [3, 9]	AC50 [3, 10]	AC50 [3, 11]	max response [3, 12]	AC50 [4, 13]	AC50 [4, 14]	z-score [5, 15]	z-score [5, 16]	z-score [5, 17]	IC50 [6]	AC50 ([7]; measured here: CBG/CBR ratio read-out)	AC50 [7, 18]	AC50 ([5]; TFE3-RCC viability, measured here: UOK124 cell viability)	AC50 ([5]; TFE3-RCC viability, measured here: UOK145 cell viability)	IC50 [8]
6	NC1CC1c1ccccc1 (stereo not drawn)	–	35.5 µM [falling, single point]	35.5 µM [falling, single point]	60.2%	–	–	57.9%	–	21.3 µM [rising, partial curve]	–	–	–	–	–	–	–	–	–
7	CN[C@@H]1C[C@@H](c2ccc(Cl)c(Cl)c2)c2ccccc21	–	15.8 µM [falling, partial curve]	17.8 µM [falling, partial curve]	-37.9%	17.8 µM [falling, partial curve, poor fit]	17.8 µM [falling, partial curve, poor fit]	-37.4%	30.1 µM [falling, full curve]	23.9 µM [falling, full curve]	–	–	–	–	–	20.6 µM [falling, partial curve]	–	–	–
